This test is described as follows: qHTS Assay for Modulators of Lamin A Splicing. As to conditions: HeLa LMNA splicing GFP/RFP minigene ratio, 48 h. The gist of the method: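 S3 HeLa stable clones carrying a lamin A-EGFP splicing minigene plus DsRed2 were seeded at 600 cells/well in Opti-MEM with 2% FBS, pin-dosed and incubated 48 h at 37°C. Acumen cytometry (488 nm) gave the GFP/RFP total-intensity ratio.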

The mark [1] stands for this setting: measured here: GFP splicing reporter channel.
Setting [2] is: measured here: RFP viability control channel.

This is one part of the list. These are further read-outs of the screen, such as a control signal, another cell line or another target. No call is given for them. Compounds called inactive in the main read-out are mostly missing here. The note in brackets gives the kind of curve behind each potency; many fits are weak.

On to `Cc1cc(C)c(S(=O)(=O)N2CCCOC2CNC(=O)C(=O)NCCC2=CCCCC2)c(C)c1` (stereo not drawn), for which, under setting [1], the AC50 was 0.0158 µM [falling, full curve, poor fit]. Take `CC(C)(C)C1CCc2c(sc(NC(=O)c3cccs3)c2C(=O)N2CCCCC2)C1` (stereo not drawn): the AC50 is 22.4 µM [rising, single point] under setting [1] and 12.6 µM [rising, single point] under setting [2]. Regarding `Cc1ccc(C)c(CNC(=O)c2ccc3c(c2)nc2n3CCC(C)C2)c1` (stereo not drawn), the AC50 under setting [2] was 0.562 µM [falling, partial curve]. Still for that read-out and setting: in the case of `Cc1cc(C)c2nc(N3CCC(C(=O)NCCCN4CCCCC4)CC3)sc2c1` it was 7.08 µM [falling, partial curve]; in that of `O=C(/C=C/c1ccccc1)NC(=S)Nc1ccc2c3c(cccc13)CC2`, 22.4 µM [rising, partial curve]. The same measure, in the same setting: for `COc1ccccc1C1=NC(c2ccc(F)cc2)N=C1C` (stereo not drawn) the value was 1.78 µM [falling, partial curve, poor fit]. Turning to `Cc1ccc(NC(=O)CSc2nc3c(c(=O)[nH]2)CN(Cc2ccc(F)cc2)CC3)cc1C`, the AC50 under setting [1] is 0.0794 µM [falling, full curve, poor fit]. In the case of `CC1=CC2=NC(=O)/C(=C\c3cccn3CCOc3ccc(C)c(C)c3)C(=N)N2O1`, the AC50 under setting [2] was 0.01 µM [rising, full curve, poor fit]. As to `O=C(/C=C/c1ccc(Cl)cc1)N1CCN(c2c(Cl)cccc2[N+](=O)[O-])CC1`, the half-maximal activity concentration (AC50) by setting is: under setting [1], 17.8 µM [rising, single point]; under setting [2], 25.1 µM [rising, single point]. Turning to `Cc1cc(=O)[nH]c(SCC(=O)NCCC2=CCCCC2)n1`, the AC50 under setting [1] is 1.26 µM [rising, full curve, poor fit]. For the compound `COc1cc(NC(=O)c2cc3c(C)nc4ccccc4c3o2)cc(OC)c1OC`, the AC50 under setting [2] was 10 µM [rising, partial curve].

As to `N#Cc1c(NC(=O)CCCl)sc2c1CCCCC2`, the AC50 by setting is: under setting [1], 3.55 µM [falling, partial curve]; under setting [2], 35.5 µM [falling, single point]. For `Cc1cc(OC(F)F)ccc1NC(=O)Nc1ccc([N+](=O)[O-])cc1`, the AC50 under setting [2] is 11.2 µM [rising, partial curve]. As to `Cc1ccccc1Cn1ccc(=NCc2ccccc2)cc1`, the AC50 is, setting by setting: under setting [1], 17.8 µM [rising, partial curve]; under setting [2], 11.2 µM [rising, partial curve]. Regarding `O=C(CC1(O)C(=O)N(Cc2cccc3ccccc23)c2ccccc21)c1cccnc1` (stereo not drawn), the AC50 runs as follows: under setting [1], 17.8 µM [rising, partial curve, poor fit]; under setting [2], 14.1 µM [rising, partial curve, poor fit]. With `COc1cccc(-c2cc(N(C)Cc3ccco3)ncn2)c1`, the AC50 by setting is: under setting [1], 22.4 µM [falling, single point]; under setting [2], 20 µM [falling, single point]. For `Cc1cccc(NC(=O)COc2ccc3oc4c(c3c2)CCCC4)n1`, the AC50 under setting [2] was 35.5 µM [rising, single point]. For the compound `O=C(Nc1ccccc1)c1ccc(S(=O)(=O)N2CCCCC2)cc1`, the AC50 under setting [2] was 35.5 µM [rising, single point]. For the compound `COCC(C)N=C1NN=C(c2cc(C)n(Cc3ccccc3Cl)c2C)CS1` (stereo not drawn), the AC50 under setting [1] is 12.6 µM [falling, partial curve]. Consider `COc1ccc(NC(=O)c2cc(S(=O)(=O)N(Cc3ccccc3)c3ccccc3)ccc2Cl)cn1`, for which the AC50 runs as follows: under setting [1], 35.5 µM [rising, single point]; under setting [2], 35.5 µM [rising, single point].

`Cc1c([N+](=O)[O-])cc(C(=O)Nc2ccc(Cc3ccncc3)cc2)cc1[N+](=O)[O-]`: the AC50 by setting is: under setting [1], 35.5 µM [rising, single point]; under setting [2], 31.6 µM [rising, single point]. Take `CC(C)=CCc1c2c(c(O)c3c(=O)c(O)c(-c4ccccc4)oc13)C=CC(C)(C)O2`: the AC50 was 11.2 µM [falling, partial curve] under setting [1] and 3.16 µM [rising, full curve, poor fit] under setting [2]. On to `N#Cc1ccc(NC(=O)COC(=O)C2Cc3ccccc3CN2C(=O)c2ccccc2)cc1` (stereo not drawn), for which the AC50 under setting [2] is 5.62 µM [rising, partial curve]. For `CCCC(=O)Nc1cccc(-c2cn3cccnc3n2)c1`, the AC50 under setting [1] was 0.282 µM [rising, single point]. For the compound `CC(=O)c1ccc(NC(=O)C2CC(=O)N(Cc3ccccc3)C2)cc1` (stereo not drawn), the AC50 is, setting by setting: under setting [1], 15.8 µM [rising, single point]; under setting [2], 5.62 µM [rising, single point]. Regarding `Cc1csc2ncnc(NC3CCN(Cc4ccccc4)CC3)c12`, the concentration at half-maximal activity (AC50) by setting is: under setting [1], 3.16 µM [falling, partial curve, poor fit]; under setting [2], 6.31 µM [falling, partial curve, poor fit]. Regarding `CCOC(=O)c1ccccc1NC(=O)c1ccc(F)cc1`, the AC50 under setting [2] is 10 µM [falling, partial curve, poor fit]. With `COc1ccc(NC(=O)C2CCN(C(=O)N3CCOc4ccccc43)CC2)cc1`, under setting [1], the AC50 was 25.1 µM [falling, partial curve]. `CC(=O)Nc1nc(C)c(-c2csc(Nc3ccc(O)cc3)n2)s1`: the AC50 under setting [2] is 3.55 µM [rising, full curve]. Same read-out and setting: for `COC(=O)c1c(C)[nH]c(C(=O)OCC(=O)NC(C)(C)C)c1C` the value was 11.2 µM [rising, partial curve]; for `CCOC(=O)C1CCCN(CCC(=O)Nc2ccc(C)c(C)c2)C1` (stereo not drawn), 0.00398 µM [rising, full curve, poor fit].

As to `Cc1ccc(/C=N/Nc2nnc(Cl)c3ccccc23)cc1`, the AC50 is 8.91 µM [rising, partial curve, poor fit] under setting [1] and 8.91 µM [rising, partial curve, poor fit] under setting [2]. In the case of `Cc1ccc(C)c(NC(=O)c2ccccc2Sc2ccc([N+](=O)[O-])cc2Cl)c1`, under setting [2], the AC50 is 35.5 µM [rising, single point]. For the compound `Cc1cc(C)nc(SCC(=O)c2cc3ccccc3oc2=O)n1`, the AC50 under setting [2] was 8.91 µM [rising, partial curve]. As to `CCn1cc(C(=O)O)c(=O)c2cc(F)c(N3CCN(S(=O)(=O)c4ccc5c(c4)OCCO5)CC3)cc21`, the AC50 runs as follows: under setting [1], 3.55 µM [falling, full curve]; under setting [2], 0.0794 µM [falling, full curve, poor fit].

(Values after PubChem BioAssay AID1487 (National Center for Advancing Translational Sciences (NCATS), 2009).)
